# Measurements reported in PubChem BioAssay AID504793 (Drosophila RNAi Screening Center, 2011)
# Aim: 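Genes required for cells to halt at G2/M after double-strand DNA breaks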 (primary screen)
# Cells: Drosophila S2R+ cells
# Reagent: long dsRNA against Drosophila genes, about 0.25 µg dsRNA per well
# Timing: 4 days of dsRNA, then 4 hours of drug before read-out
# Conditions: doxorubicin 0.5 µM for 4 hours to cause double-strand breaks, in cells also given a low, harmless dose of dsRNA against nbs to sensitise the assay
# Measured: 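Per-well count of mitotic cells stained for phospho-histone H3 after doxorubicin exposure, used as mitotic index; counts are raw and not normalised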
# Reading the numbers: mitotic cells: higher = more cells in mitosis, weaker G2 arrest
# Active means: 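a call needs confirmation in secondary tests, with other dsRNAs and a check of mitotic timing without damage, not just a high primary count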
# Meaning of the calls: active = confirmed in follow-up tests; inactive = not confirmed
# The deposit covers about 23,000 reagents; this is an unselected part of those with a known target gene and a result. Of all reagents, 62 (0.27%) got an active call. 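Calls come from follow-up tests whose scores are not deposited, so confirmed genes may have low counts here; counts are not normalised per plate.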 Raw values are not corrected between plates. The numbers tell different reagents against one gene apart. Names joined by + are all predicted targets of the reagent.
target,reagent no.,"mitotic cells, replicate 1","mitotic cells, replicate 2",activity call
CG32373,1,4,,inactive
MtnD,1,7,,inactive
CG14416,1,10,,inactive
CG14416,2,8,,inactive
ssp6,1,8,,inactive
ssp6,2,1,,inactive
ssp6,3,5,,inactive
cdm,1,10,,inactive
CG32767,1,9,,inactive
CG32767,2,4,,inactive
Cul3,1,6,,inactive
Cul3,2,2,,inactive
Cul3,3,3,,inactive
Cul3,4,3,,inactive
CG11037,1,2,,inactive
Tet,1,1,,inactive
Tet,2,7,,inactive
Dh44-R1,1,11,,inactive
Dh44-R1,2,4,,inactive
Prosbeta7,1,88,,inactive
Tep2,1,3,,inactive
Tep2,2,1,,inactive
RhoGAP18B,1,15,,inactive
RhoGAP18B,2,4,,inactive
RhoGAP18B,3,3,,inactive
RhoGAP18B,4,6,,inactive
RhoGAP18B,5,10,,inactive
CG10943,1,2,,inactive
CG10943,2,6,,inactive
bnk,1,10,,inactive
bnk,2,4,,inactive
Nepl16,1,7,,inactive
CG18477 + CG31780,1,4,,inactive
Ddrgk1,1,7,,inactive
Ddrgk1,2,4,,inactive
Ude,1,8,,inactive
FRG1,1,1,,inactive
sturkopf,1,4,,inactive
sturkopf,2,11,,inactive
CG14445,1,13,,inactive
CG14445,2,10,,inactive
CG14739,1,8,,inactive
AstCC,1,5,,inactive
Bdp1,1,9,,inactive
Bdp1,2,5,,inactive
CG8944,1,6,,inactive
CG8944,2,20,,inactive
CG8944,3,8,,inactive
Tsp42Eb + CG30160,1,4,,inactive
Tsp42Eb + CG30160,2,5,,inactive
CG8642,1,10,,inactive
Ote,1,2,,inactive
CG6923,1,10,,inactive
CG6923,2,3,,inactive
CG7058,1,2,,inactive
CG7058,2,3,,inactive
Gem4b + Gem4c + Glos,1,7,,inactive
Lcp2,1,8,,inactive
CG17764,1,8,,inactive
CG14324,1,12,,inactive
CG14324,2,5,,inactive
dor,1,7,,inactive
dor,2,5,,inactive
CG17361,1,5,,inactive
beta3GalTII,1,4,,inactive
beta3GalTII,2,2,,inactive
CG42372 + CG30100,1,6,,inactive
Hmgcl,1,5,,inactive
Rgl,1,8,,inactive
Eb1,1,6,,inactive
CG42750,1,4,,inactive
CG42750,2,10,,inactive
CG42750,3,8,,inactive
CG42750,4,7,,inactive
CG42750,5,6,,inactive
CG42750,6,2,,inactive
Magi,1,8,,inactive
Magi,2,10,,inactive
Magi,3,11,,inactive
CG31937,1,3,,inactive
GstD6,1,4,,inactive
GstD6,2,7,,inactive
CG33125,1,7,,inactive
CG33125,2,5,,inactive
CG16741,1,1,,inactive
CG16741,2,8,,inactive
qvr,1,4,,inactive
Usp10,1,4,,inactive
Usp10,2,9,,inactive
CG5080,1,8,,inactive
UQCR-C1,1,4,,inactive
CG4004,1,6,,inactive
CG4004,2,8,,inactive
CG4004,3,3,,inactive
CG32579,1,8,,inactive
Nepl21,1,3,,inactive
CG17574,1,4,14,inactive
Smg5,1,3,,inactive
Smg5,2,5,,inactive
qkr54B,1,3,,inactive
qkr54B,2,10,,inactive
Dic61B,1,1,,inactive
Ccp84Af,1,2,,inactive
Ccp84Af,2,3,,inactive
CG34159,1,13,,inactive
NELF-B,1,12,,inactive
NELF-B,2,9,,inactive
CG3288,1,6,,inactive
CG10916,1,2,,inactive
CG14471 (retired record),1,6,,inactive
CG14471 (retired record),2,6,,inactive
Slc25A46a,1,6,,inactive
Loxl2,1,5,,inactive
CG32944,1,11,,inactive
CG32944,2,4,,inactive
Su(var)2-10,1,18,,active
Su(var)2-10,2,7,,inactive
CadN,1,11,,inactive
CadN,2,6,,inactive
Or22c,1,5,,inactive
Or22c,2,7,,inactive
CG2201,1,3,,inactive
CG40298,1,10,,inactive
CG17777,1,8,,inactive
scaf6,1,10,,inactive
scaf6,2,2,,inactive
lic,1,10,,inactive
CG34253,1,7,,inactive
CR18275 + CG13373,1,10,,inactive
CG4480,1,5,,inactive
ci,1,8,,inactive
CG11755,1,5,,inactive
CG11755,2,3,,inactive
can,1,5,,inactive
mats,1,5,,inactive
mats,2,7,,inactive
unk,1,6,,inactive
unk,2,4,,inactive
abs,1,6,,inactive
mei-9,1,10,,inactive

Copied from above, 14 entries:
target,reagent no.,"mitotic cells, replicate 1","mitotic cells, replicate 2",activity call
CG17574,1,4,14,inactive
Smg5,1,3,,inactive
Smg5,2,5,,inactive
qkr54B,1,3,,inactive
qkr54B,2,10,,inactive
Dic61B,1,1,,inactive
Ccp84Af,1,2,,inactive
Ccp84Af,2,3,,inactive
CG34159,1,13,,inactive
NELF-B,1,12,,inactive
NELF-B,2,9,,inactive
CG3288,1,6,,inactive
CG10916,1,2,,inactive
CG14471 (retired record),1,6,,inactive
